Results as given in publication PMC6613617.
Results are given in words; binding and its absence hold for the method and conditions named. In cells and extracts the contact can be indirect. Some entries that bind do so weakly or less than the wild type. Sequences can lack the tags named with a protein.

Protein sequences, listed by entry. Tags and fused reporters are not part of them. Lines headed by an entry give the natural chain unless they say otherwise; changes in a name come on top.
UniProt P28340: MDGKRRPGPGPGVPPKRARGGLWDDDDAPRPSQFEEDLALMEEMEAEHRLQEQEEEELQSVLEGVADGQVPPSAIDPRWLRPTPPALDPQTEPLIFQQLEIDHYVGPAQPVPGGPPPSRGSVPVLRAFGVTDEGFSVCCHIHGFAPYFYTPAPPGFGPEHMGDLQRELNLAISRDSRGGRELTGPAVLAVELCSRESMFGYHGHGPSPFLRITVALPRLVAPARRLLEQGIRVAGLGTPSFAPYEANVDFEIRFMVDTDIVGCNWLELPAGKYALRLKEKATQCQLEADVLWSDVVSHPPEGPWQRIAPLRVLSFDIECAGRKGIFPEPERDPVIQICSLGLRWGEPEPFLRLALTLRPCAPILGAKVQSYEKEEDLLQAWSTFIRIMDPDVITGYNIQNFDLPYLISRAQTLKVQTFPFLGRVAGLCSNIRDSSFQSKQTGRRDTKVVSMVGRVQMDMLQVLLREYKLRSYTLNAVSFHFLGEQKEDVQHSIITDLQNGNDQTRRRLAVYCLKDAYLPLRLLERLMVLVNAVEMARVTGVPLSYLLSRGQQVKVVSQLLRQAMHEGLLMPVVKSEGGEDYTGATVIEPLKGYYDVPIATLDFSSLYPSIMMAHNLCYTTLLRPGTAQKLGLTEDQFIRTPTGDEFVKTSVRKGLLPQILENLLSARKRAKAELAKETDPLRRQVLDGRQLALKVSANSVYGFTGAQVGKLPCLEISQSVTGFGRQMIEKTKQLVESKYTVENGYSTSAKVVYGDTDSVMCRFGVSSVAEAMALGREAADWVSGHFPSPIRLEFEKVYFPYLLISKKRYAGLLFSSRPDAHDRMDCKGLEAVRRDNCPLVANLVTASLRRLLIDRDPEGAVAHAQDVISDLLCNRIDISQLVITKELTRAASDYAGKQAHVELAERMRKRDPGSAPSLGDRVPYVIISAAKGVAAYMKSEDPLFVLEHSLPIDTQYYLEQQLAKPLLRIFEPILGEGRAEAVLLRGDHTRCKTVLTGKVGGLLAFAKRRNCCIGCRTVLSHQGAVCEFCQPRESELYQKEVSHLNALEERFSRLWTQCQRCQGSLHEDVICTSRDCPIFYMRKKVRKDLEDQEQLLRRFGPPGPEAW

How the values were obtained:
[1] = target: N-terminally Flag-tagged POLD1 H1066W (human) (UniProt P28340); assay: pull-down; Flag-pull down (Flag-M2 agarose) from lysate of Sf9 cells co-expressing Flag-POLD1 variant, POLD2 and POLD3 (three-subunit Pol δ3, no POLD4), with or without PCNA; SDS-PAGE with protein stain
[2] = target: N-terminally Flag-tagged POLD1 H1066Y (human) (UniProt P28340); assay: as above
[3] = target: N-terminally Flag-tagged POLD1 H1066W (human) (UniProt P28340); assay: pull-down; Flag-pull down (Flag-M2 agarose) from lysate of Sf9 cells co-expressing Flag-POLD1 variant, POLD2, POLD3 and POLD4, without PCNA; 50 mM Tris-HCl pH 8.0, 200 mM NaCl, 0.25% NP-40, 4°C; SDS-PAGE with protein stain
[4] = target: N-terminally Flag-tagged POLD1 H1066Y (human) (UniProt P28340); assay: as above
[5] = target: N-terminally Flag-tagged POLD1 H1066W (human) (UniProt P28340); assay: pull-down; Flag-pull down (Flag-M2 agarose) from lysate of Sf9 cells co-expressing Flag-POLD1 variant, POLD2, POLD3, POLD4 and untagged PCNA; 50 mM Tris-HCl pH 8.0, 200 mM NaCl, 0.25% NP-40, 4°C; SDS-PAGE with protein stain
[6] = target: N-terminally Flag-tagged POLD1 H1066Y (human) (UniProt P28340); assay: as above

Measured: binding

B1: POLD3 (accessory subunit of human DNA polymerase delta), untagged (protein, UniProt Q15054 1-466)
chain: MADQLYLENIDEFVTDQNKIVTYKWLSYTLGVHVNQAKQMLYDYVERKRKENSGAQLHVTYLVSGSLIQNGHSCHKVAVVREDKLEAVKSKLAVTASIHVYSIQKAMLKDSGPLFNTDYDILKSNLQNCSKFSAIQCAAAVPRAPAESSSSSKKFEQSHLHMSSETQANNELTTNGHGPPASKQVSQQPKGIMGMFASKAAAKTQETNKETKTEAKEVTNASAAGNKAPGKGNMMSNFFGKAAMNKFKVNLDSEQAVKEEKIVEQPTVSVTEPKLATPAGLKKSSKKAEPVKVLQKEKKRGKRVALSDDETKETENMRKKRRRIKLPESDSSEDEVFPDSPGAYEAESPSPPPPPSPPLEPVPKTEPEPPSVKSSSGENKRKRKRVLKSKTYLDGEGCIVTEKVYESESCTDSEEELNMKTSSVHRPPAMTVKKEPREERKGPKKGTAALGKANRQVSITGFFQRK
binds: [1] | [2] | [3] | [4] | [5] | [6]

B2: POLD4 (accessory subunit of human DNA polymerase delta), untagged (protein, UniProt Q9HCU8 1-107)
chain: MGRKRLITDSYPVVKRREGPAGHSKGELAPELGEEPQPRDEEEAELELLRQFDLAWQYGPCTGITRLQRWCRAKQMGLEPPPEVWQVLKTHPGDPRFQCSLWHLYPL
binds: [3] | [4] | [5] | [6]
